In the supplement of paper PMC6078165:
The reference is the same well before dosing, and untreated signal decays as well.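 Fibroblast labels name human fibroblasts: mostly primary ones from tissues such as uterus (C12385, HUF), lung (H6013), bone (Hs27A), adrenal (HADF) and skin (WS1), plus mammary HMF and breast cancer-associated Hs343T. The cancer cells are basal-like or mesenchymal-like triple-negative breast cancer lines. The paper calls a changed response a hit when it shifts by more than 3x the replicate standard deviation. The tissue of the other fibroblasts is not given here.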

Tested on: MDAMB436
Experiment: relative JC-1 red fluorescence (viability) vs pre-drug, coculture with fibroblast (fraction); higher = more viable cancer cells
Protocol: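 JC-1 labelled TNBC cells cocultured 1:1 (1,500 cells each) with CellTrace Violet stained primary or stromal fibroblasts in 384-well plates in FluoroBrite medium, treated with one of 42 anticancer drugs at 0.1, 1, 10 or 100 uM. JC-1 red fluorescence (mitochondrial integrity in cancer cells only) was read by plate reader every 8 h for 72 h. Values are normalised to each well's pre-drug value. The stock of one drug was tenfold lower, so its dose labels may be too high.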

CC(=O)c1c(C)c2cnc(Nc3ccc(N4CCNCC4)cn3)nc2n(C2CCCC2)c1=O [Palbociclib]
relative JC-1 red fluorescence
Settings | 8 h | 16 h | 24 h | 32 h | 40 h | 48 h | 56 h | 64 h | 72 h
0.1 µM, coculture fibroblast: C12385 | 0.804 | 0.68 | 0.65 | 0.572 | 0.529 | 0.504 | 0.483 | 0.467 | 0.462
0.1 µM, coculture fibroblast: H6013 | 0.864 | 0.747 | 0.744 | 0.741 | 0.732 | 0.763 | 0.725 | 0.702 | 0.662
0.1 µM, coculture fibroblast: H6019 | 0.748 | 0.6671 | 0.634 | 0.557 | 0.521 | 0.501 | 0.466 | 0.438 | 0.413
0.1 µM, coculture fibroblast: H6076 | 0.788 | 0.706 | 0.684 | 0.642 | 0.621 | 0.594 | 0.606 | 0.603 | 0.591
0.1 µM, coculture fibroblast: H6231 | 0.81 | 0.738 | 0.69 | 0.613 | 0.583 | 0.547 | 0.5215 | 0.4945 | 0.466
0.1 µM, coculture fibroblast: HADF | 0.813 | 0.685 | 0.652 | 0.599 | 0.5674 | 0.569 | 0.506 | 0.492 | 0.452
0.1 µM, coculture fibroblast: HCFa | 0.773 | 0.6468 | 0.6068 | 0.5689 | 0.522 | 0.537 | 0.468 | 0.456 | 0.405
0.1 µM, coculture fibroblast: HCPF | 0.774 | 0.68 | 0.658 | 0.599 | 0.575 | 0.5363 | 0.511 | 0.487 | 0.465
0.1 µM, coculture fibroblast: HHSteC | 0.8239 | 0.74 | 0.7198 | 0.6875 | 0.674 | 0.6859 | 0.6182 | 0.5991 | 0.541
0.1 µM, coculture fibroblast: HMF | 0.765 | 0.667 | 0.626 | 0.572 | 0.5501 | 0.5173 | 0.519 | 0.4926 | 0.4869
0.1 µM, coculture fibroblast: HPFa | 0.8797 | 0.79 | 0.7576 | 0.7154 | 0.697 | 0.71 | 0.63 | 0.606 | 0.5288
0.1 µM, coculture fibroblast: HUF | 0.866 | 0.779 | 0.746 | 0.679 | 0.638 | 0.599 | 0.583 | 0.561 | 0.549
0.1 µM, coculture fibroblast: Hs5 | 0.774 | 0.6683 | 0.664 | 0.614 | 0.601 | 0.565 | 0.579 | 0.55 | 0.539
0.1 µM, coculture fibroblast: Hs27A | 0.789 | 0.716 | 0.676 | 0.663 | 0.625 | 0.691 | 0.586 | 0.564 | 0.495
0.1 µM, coculture fibroblast: Hs343T | 0.729 | 0.6528 | 0.614 | 0.569 | 0.549 | 0.512 | 0.5 | 0.484 | 0.48
0.1 µM, coculture fibroblast: WS1 | 0.787 | 0.668 | 0.63 | 0.537 | 0.488 | 0.46 | 0.425 | 0.395 | 0.381
1 µM, coculture fibroblast: C12385 | 0.8402 | 0.709 | 0.719 | 0.646 | 0.595 | 0.566 | 0.533 | 0.512 | 0.498
1 µM, coculture fibroblast: H6013 | 0.899 | 0.85 | 0.878 | 0.881 | 0.794 | 0.761 | 0.754 | 0.807 | 0.813
1 µM, coculture fibroblast: H6019 | 0.783 | 0.716 | 0.71 | 0.643 | 0.604 | 0.58 | 0.536 | 0.495 | 0.467
1 µM, coculture fibroblast: H6076 | 0.823 | 0.70206 | 0.715 | 0.6766 | 0.654 | 0.633 | 0.643 | 0.643 | 0.632
1 µM, coculture fibroblast: H6231 | 0.819 | 0.726 | 0.717 | 0.6452 | 0.6089 | 0.5677 | 0.5541 | 0.54 | 0.506
1 µM, coculture fibroblast: HADF | 0.877 | 0.794 | 0.799 | 0.782 | 0.764 | 0.79 | 0.726 | 0.715 | 0.67
1 µM, coculture fibroblast: HCFa | 0.845 | 0.762 | 0.738 | 0.7043 | 0.67 | 0.67648 | 0.603 | 0.575 | 0.511
1 µM, coculture fibroblast: HCPF | 0.822 | 0.731 | 0.7517 | 0.696 | 0.661 | 0.621 | 0.593 | 0.575 | 0.545
1 µM, coculture fibroblast: HHSteC | 0.894 | 0.845 | 0.817 | 0.784 | 0.779 | 0.784 | 0.717 | 0.686 | 0.621
1 µM, coculture fibroblast: HMF | 0.852 | 0.735 | 0.747 | 0.6949 | 0.664 | 0.6291 | 0.619 | 0.594 | 0.574
1 µM, coculture fibroblast: HPFa | 0.939 | 0.904 | 0.901 | 0.868 | 0.86 | 0.862 | 0.78 | 0.746 | 0.666
1 µM, coculture fibroblast: HUF | 0.901 | 0.778 | 0.759 | 0.684 | 0.625 | 0.601 | 0.57 | 0.539 | 0.519
1 µM, coculture fibroblast: Hs5 | 0.826 | 0.744 | 0.7441 | 0.677 | 0.657 | 0.608 | 0.601 | 0.57 | 0.541
1 µM, coculture fibroblast: Hs27A | 0.8669 | 0.803 | 0.778 | 0.747 | 0.716 | 0.762 | 0.656 | 0.633 | 0.56
1 µM, coculture fibroblast: Hs343T | 0.84 | 0.722 | 0.708 | 0.665 | 0.627 | 0.587 | 0.568 | 0.546 | 0.528
1 µM, coculture fibroblast: WS1 | 0.832 | 0.7277 | 0.72209 | 0.65481 | 0.6148 | 0.599 | 0.5751 | 0.544 | 0.536
